Reference: PubChem BioAssay AID2685 (National Center for Advancing Translational Sciences (NCATS), 2010)
The list shows a part of the results. Shown are side measurements of this screen, not its main read-out; they come without a call. Most of these compounds were active or inconclusive in the main read-out, so they are no random draw. Words in brackets tell the shape of the fitted curve; partial curves, single points and poor fits give uncertain potencies.

Assay: qHTS Assay for Lipid Storage Modulators in Drosophila S3 Cells;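 on cell number change: cells counted by Cell Tracker Red CMTPX staining in the red channel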
Settings: BODIPY lipid droplet fluorescence, 18-24 h; for cell number change: measured here: cell count max response, cells fed with added oleic acid
How it was run: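 Drosophila S3 cells loaded with oleic acid (400 uM, as added) and compounds at several concentrations; lipid droplets imaged by 488-nm laser-scanning cytometry, 500–530 nm intensity and object ratio to cell channel. Percent activity normalized to 20 uM Triacsin C.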

[1] = measured here: cell number channel AC50, cells fed with added oleic acid
[2] = measured here: lipid fluorescence (Fed channel) AC50, cells fed with added oleic acid

Compound	cell number change	AC50 [1]	AC50 [2]
COc1cc2[nH]c(=S)n(Cc3ccc(C)cc3)c(=O)c2cc1OC	-62.5%	29.1 µM [falling, single point]	23.1 µM [falling, single point]
Cc1nn(Cc2ccccc2Cl)c(C)c1C(=O)NCC(c1cccs1)N1CCOCC1 (stereo not given)	–	3.66 µM [rising, partial curve]	–
COc1ccccc1NC(=S)N1CCN(c2ccccn2)CC1	9.51%	–	0.411 µM [rising, full curve, poor fit]
O=C(O)C1CCC(Cn2c(SCc3cc(=O)n4cc(Br)ccc4n3)nc3ccsc3c2=O)CC1 (stereo not given)	-3.36%	–	1.16 µM [rising, single point]
CC(=O)Nc1ccc(NC(=O)CSc2ccc(-c3ccc(-n4ccnc4)cc3)nn2)cc1	-47.1%	29.1 µM [falling, single point]	–
O=C(CNC(=S)N(Cc1ccccc1F)C1CCCCC1)NCC1CCCO1 (stereo not given)	-6.07%	0.13 µM [falling, full curve, poor fit]	0.651 µM [falling, single point]
CC(C(=O)NCCN1C(=O)S/C(=C\c2cccs2)C1=O)N1C(=O)c2ccccc2C1=O (stereo not given)	-13.8%	–	10.3 µM [falling, partial curve, poor fit]
COC(=O)c1nnn(-c2nonc2N)c1CSc1nc2ccccc2s1	-3.44%	–	–
CC(C)Oc1ccc(C2CC(=O)N(C)C2=O)cc1 (stereo not given)	14.2%	–	0.164 µM [rising, full curve, poor fit]
COc1ccc(OCc2cc(C(=O)N3CCCCCC3)no2)c(Cl)c1	20.2%	–	–
COc1ccc(C=O)cc1COc1c(F)c(F)cc(F)c1F	-38.9%	0.731 µM [falling, full curve]	1.84 µM [falling, partial curve]
CCCCOC(=O)CCn1c(=S)oc2ccccc21	-41.5%	29.1 µM [falling, single point]	0.206 µM [falling, full curve, poor fit]
CSc1ccccc1NC(=O)CN(C)CC(=O)Nc1cccc(Br)c1	–	6.51 µM [rising, single point]	3.66 µM [rising, single point]
CCCCn1c(SCC(=O)Nc2ccc3c(c2)CCC3)nc2ccccc2c1=O	14.6%	4.11 µM [rising, single point]	5.8 µM [rising, single point]
COc1ccc(-c2nn(-c3ccccc3C)cc2CNCc2cccnc2)cc1F	8.65%	–	23.1 µM [rising, partial curve]
O=[N+]([O-])c1cccc(NNS(=O)(=O)c2ccccc2F)c1	-14.5%	–	–
O=C(C1CCCO1)N1CCN(S(=O)(=O)c2cccc3nsnc23)CC1 (stereo not given)	1.62%	–	–
C[C@@H]1C=CC(=O)O[C@@H]1c1ccc(Cl)cc1	7.19%	–	–
c1ccc(Cn2nnc3c(Nc4ccc5c(c4)OCO5)nc(C4CC4)nc32)cc1	-27.2%	–	0.082 µM [rising, full curve, poor fit]
S=c1[nH]c2cc(-c3ccccc3)ccc2o1	–	0.0326 µM [falling, full curve, poor fit]	0.0058 µM [falling, full curve, poor fit]

Compound	cell number change	AC50 [1]	AC50 [2]
O=C(CSc1nccc(=O)[nH]1)N1c2ccccc2CCc2ccccc21	7.1%	–	2.06 µM [falling, full curve, poor fit]
COc1ccccc1NC(=S)N(CCCN(C)C)Cc1cc2cc3c(cc2[nH]c1=O)OCO3	-2.6%	–	0.103 µM [falling, partial curve, poor fit]
COc1cc(CNn2nnnc2N)cc(Br)c1OCC(=O)NC(C)(C)C	22.7%	–	23.1 µM [rising, partial curve]
COc1ccc(C=C(c2nc3ccccc3s2)c2nc3ccccc3s2)cc1O	150%	20.6 µM [rising, single point]	–
O=C(c1ccc(N2CCCS2(=O)=O)cc1)N1CCN(c2ccccc2)CC1	-3.17%	–	18.4 µM [falling, partial curve]
COc1ccccc1-c1nc(SCC(=O)NCc2ccco2)c2c(=O)n(C)c(=O)n(C)c2n1	15%	–	1.64 µM [falling, partial curve]
COc1cccc(/C=N/N2C(=O)C3C4c5ccccc5C(c5ccccc54)C3C2=O)c1OC (stereo not given)	32.3%	29.1 µM [rising, single point]	5.17 µM [rising, partial curve]
O=C(CSc1ncn[nH]1)c1ccc2c(c1)OCO2	–	6.51 µM [rising, single point]	6.51 µM [rising, single point]
O=C1OCC2=C1C(c1ccc(F)cc1)CC(=O)N2c1ccccc1 (stereo not given)	-20.1%	–	–
O=C(Nc1ccc(O)c(-c2nc3ccccc3s2)c1)C1=COCCO1	-10.8%	6.51 µM [rising, single point]	–
Cc1ccc(CNC(=O)c2ccc(N3CCC4(CC3)CC(c3ccccc3)=NO4)c(NC(=O)c3ccc(Br)cc3)c2)cc1	32.3%	8.2 µM [rising, full curve, poor fit]	–
COC(=O)c1ccc2nc(Nc3nc4ccc(F)cc4s3)sc2c1	-34.6%	29.1 µM [falling, single point]	29.1 µM [falling, single point]
CCn1c(Cc2cccn2C)nnc1SCC(=O)c1ccc(C)cc1	-21.5%	–	14.6 µM [falling, partial curve, poor fit]
Cc1ccnc(N2CCCC(C(=O)Nc3ccc(C)c(C)c3)C2)n1 (stereo not given)	-17.9%	–	–
Cc1ccc(S(=O)(=O)N2CCN(C(=O)COC(=O)c3ccc(Cl)nc3)CC2)c(C)c1	0.735%	–	1.84 µM [rising, full curve]
CC(C)Cn1nc(NC(=O)c2ccco2)c2cc3ccccc3nc21	17.2%	0.00651 µM [rising, full curve, poor fit]	2.06 µM [rising, partial curve]
CC(C)c1ccc(NC(=O)C(c2ccccc2)N2CC(=O)Nc3ccccc32)cc1 (stereo not given)	-0.107%	–	–
COc1ccc(NC(=O)c2ccc(OC(F)F)cc2)cc1Cl	31.3%	10.3 µM [rising, single point]	14.6 µM [rising, partial curve]
CCc1cccc(C)c1NC(=O)CSc1nc2ccccc2n1CC(=O)N(C)C	31.1%	23.1 µM [rising, single point]	10.3 µM [rising, single point]
Cn1c(CCC(=O)OCC(=O)NCc2ccc3c(c2)OCO3)nc(=O)c2ccccc21	13.5%	–	3.26 µM [rising, full curve]

Compound	cell number change	AC50 [1]	AC50 [2]
COc1cccc(-c2c[nH]c(=O)[nH]c2=O)c1	17.6%	–	16.4 µM [rising, partial curve, poor fit]
CC(C)N(C(C)C)S(=O)(=O)c1ccc(NC(=O)c2cnccn2)cc1	-21.5%	–	8.2 µM [falling, partial curve]
O=C(CCN1C(=O)C2C3CCC(C3)C2C1=O)Nc1ccc([N+](=O)[O-])cc1 (stereo not given)	-4.46%	0.116 µM [falling, single point]	0.517 µM [falling, partial curve, poor fit]
Cn1c(=O)c2c(ncn2CC(=O)OCC(=O)Nc2sccc2C(N)=O)n(C)c1=O	0.347%	–	0.651 µM [falling, single point]
CCCCCNC(=O)Cn1c(=O)c2c(ncn2CC(C)C)n(Cc2ccccc2)c1=O	-31.6%	2.59 µM [falling, partial curve, poor fit]	5.62 µM [falling, single point]
CCc1nc(SCC(=O)NC2CCCC2)c2oc3ccccc3c2n1	-23.6%	0.259 µM [falling, partial curve, poor fit]	–
O=C(CCN1CCN(c2ccccc2)CC1)N/N=C/c1ccccc1O	7.44%	–	–
COc1cc(Nc2c3ccccc3nc3ccccc23)cc(OC)c1OC	-25.2%	–	29.1 µM [falling, single point]
COc1ccccc1N1CCN(/N=C/c2c(C)nn(-c3ccccc3)c2C)CC1	–	1.16 µM [rising, partial curve]	–
CC(C)Oc1ccc(CNC(=O)Cn2c(=O)oc3ccccc32)cc1	16.4%	0.517 µM [falling, single point]	0.517 µM [falling, single point]
CC(C)(C)c1nnc2sc(SCC(=O)c3cccs3)nn2c1=O	10.4%	–	20.6 µM [rising, single point]
COc1ccc(NC(=O)CCN2C(=O)c3ccccc3C2=O)c(OC)c1	3.67%	–	–
O=C(CCCSc1nc2ccccc2c(=O)[nH]1)c1ccccc1	–	0.00411 µM [rising, full curve, poor fit]	–
O=C(COc1ccc(Br)cc1Cl)NC(=O)Nc1ccc2c(c1)OCCO2	22.3%	0.092 µM [rising, partial curve, poor fit]	–
CCCCn1c(N)c(N(CCC(C)C)C(=O)CSc2nnc(Nc3ccccc3)s2)c(=O)[nH]c1=O	20%	–	–
Cc1nn(Cc2ccc(Cl)cc2)c(C)c1NC(=O)c1noc2c1CCc1ccccc1-2	78.6%	1.3 µM [rising, full curve]	0.731 µM [rising, full curve]
COc1cccc(CN(C)CC(O)COC(c2ccccc2)c2ccccc2C)c1 (stereo not given)	14.5%	–	–
CC(=O)Nc1ccccc1-c1nc2ccc(C(=O)N3CCN(c4cccc(C)c4)C(C)C3)cc2[nH]c1=O (stereo not given)	8.23%	–	0.0082 µM [falling, full curve, poor fit]

Part of the list above, as a markdown table.

| Compound | cell number change | AC50 [1] | AC50 [2] |
| --- | --- | --- | --- |
| O=C(CCN1C(=O)C2C3CCC(C3)C2C1=O)Nc1ccc([N+](=O)[O-])cc1 (stereo not given) | -4.46% | 0.116 µM [falling, single point] | 0.517 µM [falling, partial curve, poor fit] |
| Cn1c(=O)c2c(ncn2CC(=O)OCC(=O)Nc2sccc2C(N)=O)n(C)c1=O | 0.347% | – | 0.651 µM [falling, single point] |
| CCCCCNC(=O)Cn1c(=O)c2c(ncn2CC(C)C)n(Cc2ccccc2)c1=O | -31.6% | 2.59 µM [falling, partial curve, poor fit] | 5.62 µM [falling, single point] |
